Test results from the supplement of paper PMC10849652.
Some of the results follow.

Sequences of proteins named here, by UniProt entry; tags and fusion partners are left off. A change or cut given only in a name is not applied to a line headed by its entry.
UniProt P63167, whole entry, looked up: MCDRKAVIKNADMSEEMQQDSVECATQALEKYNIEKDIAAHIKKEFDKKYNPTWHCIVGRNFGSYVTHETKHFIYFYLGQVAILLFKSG
UniProt Q96C19: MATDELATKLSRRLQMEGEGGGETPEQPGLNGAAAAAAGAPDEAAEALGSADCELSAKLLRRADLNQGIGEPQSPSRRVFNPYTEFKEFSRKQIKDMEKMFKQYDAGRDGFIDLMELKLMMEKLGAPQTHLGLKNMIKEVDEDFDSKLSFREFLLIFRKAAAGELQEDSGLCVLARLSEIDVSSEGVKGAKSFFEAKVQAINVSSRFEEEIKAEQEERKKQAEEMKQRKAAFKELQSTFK
UniProt P42892: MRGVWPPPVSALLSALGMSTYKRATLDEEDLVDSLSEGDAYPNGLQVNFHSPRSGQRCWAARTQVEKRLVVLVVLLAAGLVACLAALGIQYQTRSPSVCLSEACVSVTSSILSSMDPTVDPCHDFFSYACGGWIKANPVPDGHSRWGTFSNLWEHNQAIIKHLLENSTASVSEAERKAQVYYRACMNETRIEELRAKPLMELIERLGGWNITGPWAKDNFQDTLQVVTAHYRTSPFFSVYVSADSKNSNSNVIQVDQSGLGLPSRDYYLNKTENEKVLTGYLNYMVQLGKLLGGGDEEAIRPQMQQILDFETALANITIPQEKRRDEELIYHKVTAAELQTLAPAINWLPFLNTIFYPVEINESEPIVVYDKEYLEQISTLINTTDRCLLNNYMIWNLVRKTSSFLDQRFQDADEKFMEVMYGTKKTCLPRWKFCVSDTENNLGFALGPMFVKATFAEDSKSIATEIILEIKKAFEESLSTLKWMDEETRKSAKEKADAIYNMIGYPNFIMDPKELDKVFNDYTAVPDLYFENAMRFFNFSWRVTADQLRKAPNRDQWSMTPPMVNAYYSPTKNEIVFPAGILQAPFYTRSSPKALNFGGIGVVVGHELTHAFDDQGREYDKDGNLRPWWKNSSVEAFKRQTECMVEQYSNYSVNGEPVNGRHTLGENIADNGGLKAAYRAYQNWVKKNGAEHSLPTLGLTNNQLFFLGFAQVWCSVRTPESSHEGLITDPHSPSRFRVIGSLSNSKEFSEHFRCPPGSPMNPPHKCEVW
UniProt Q14204, whole entry, looked up: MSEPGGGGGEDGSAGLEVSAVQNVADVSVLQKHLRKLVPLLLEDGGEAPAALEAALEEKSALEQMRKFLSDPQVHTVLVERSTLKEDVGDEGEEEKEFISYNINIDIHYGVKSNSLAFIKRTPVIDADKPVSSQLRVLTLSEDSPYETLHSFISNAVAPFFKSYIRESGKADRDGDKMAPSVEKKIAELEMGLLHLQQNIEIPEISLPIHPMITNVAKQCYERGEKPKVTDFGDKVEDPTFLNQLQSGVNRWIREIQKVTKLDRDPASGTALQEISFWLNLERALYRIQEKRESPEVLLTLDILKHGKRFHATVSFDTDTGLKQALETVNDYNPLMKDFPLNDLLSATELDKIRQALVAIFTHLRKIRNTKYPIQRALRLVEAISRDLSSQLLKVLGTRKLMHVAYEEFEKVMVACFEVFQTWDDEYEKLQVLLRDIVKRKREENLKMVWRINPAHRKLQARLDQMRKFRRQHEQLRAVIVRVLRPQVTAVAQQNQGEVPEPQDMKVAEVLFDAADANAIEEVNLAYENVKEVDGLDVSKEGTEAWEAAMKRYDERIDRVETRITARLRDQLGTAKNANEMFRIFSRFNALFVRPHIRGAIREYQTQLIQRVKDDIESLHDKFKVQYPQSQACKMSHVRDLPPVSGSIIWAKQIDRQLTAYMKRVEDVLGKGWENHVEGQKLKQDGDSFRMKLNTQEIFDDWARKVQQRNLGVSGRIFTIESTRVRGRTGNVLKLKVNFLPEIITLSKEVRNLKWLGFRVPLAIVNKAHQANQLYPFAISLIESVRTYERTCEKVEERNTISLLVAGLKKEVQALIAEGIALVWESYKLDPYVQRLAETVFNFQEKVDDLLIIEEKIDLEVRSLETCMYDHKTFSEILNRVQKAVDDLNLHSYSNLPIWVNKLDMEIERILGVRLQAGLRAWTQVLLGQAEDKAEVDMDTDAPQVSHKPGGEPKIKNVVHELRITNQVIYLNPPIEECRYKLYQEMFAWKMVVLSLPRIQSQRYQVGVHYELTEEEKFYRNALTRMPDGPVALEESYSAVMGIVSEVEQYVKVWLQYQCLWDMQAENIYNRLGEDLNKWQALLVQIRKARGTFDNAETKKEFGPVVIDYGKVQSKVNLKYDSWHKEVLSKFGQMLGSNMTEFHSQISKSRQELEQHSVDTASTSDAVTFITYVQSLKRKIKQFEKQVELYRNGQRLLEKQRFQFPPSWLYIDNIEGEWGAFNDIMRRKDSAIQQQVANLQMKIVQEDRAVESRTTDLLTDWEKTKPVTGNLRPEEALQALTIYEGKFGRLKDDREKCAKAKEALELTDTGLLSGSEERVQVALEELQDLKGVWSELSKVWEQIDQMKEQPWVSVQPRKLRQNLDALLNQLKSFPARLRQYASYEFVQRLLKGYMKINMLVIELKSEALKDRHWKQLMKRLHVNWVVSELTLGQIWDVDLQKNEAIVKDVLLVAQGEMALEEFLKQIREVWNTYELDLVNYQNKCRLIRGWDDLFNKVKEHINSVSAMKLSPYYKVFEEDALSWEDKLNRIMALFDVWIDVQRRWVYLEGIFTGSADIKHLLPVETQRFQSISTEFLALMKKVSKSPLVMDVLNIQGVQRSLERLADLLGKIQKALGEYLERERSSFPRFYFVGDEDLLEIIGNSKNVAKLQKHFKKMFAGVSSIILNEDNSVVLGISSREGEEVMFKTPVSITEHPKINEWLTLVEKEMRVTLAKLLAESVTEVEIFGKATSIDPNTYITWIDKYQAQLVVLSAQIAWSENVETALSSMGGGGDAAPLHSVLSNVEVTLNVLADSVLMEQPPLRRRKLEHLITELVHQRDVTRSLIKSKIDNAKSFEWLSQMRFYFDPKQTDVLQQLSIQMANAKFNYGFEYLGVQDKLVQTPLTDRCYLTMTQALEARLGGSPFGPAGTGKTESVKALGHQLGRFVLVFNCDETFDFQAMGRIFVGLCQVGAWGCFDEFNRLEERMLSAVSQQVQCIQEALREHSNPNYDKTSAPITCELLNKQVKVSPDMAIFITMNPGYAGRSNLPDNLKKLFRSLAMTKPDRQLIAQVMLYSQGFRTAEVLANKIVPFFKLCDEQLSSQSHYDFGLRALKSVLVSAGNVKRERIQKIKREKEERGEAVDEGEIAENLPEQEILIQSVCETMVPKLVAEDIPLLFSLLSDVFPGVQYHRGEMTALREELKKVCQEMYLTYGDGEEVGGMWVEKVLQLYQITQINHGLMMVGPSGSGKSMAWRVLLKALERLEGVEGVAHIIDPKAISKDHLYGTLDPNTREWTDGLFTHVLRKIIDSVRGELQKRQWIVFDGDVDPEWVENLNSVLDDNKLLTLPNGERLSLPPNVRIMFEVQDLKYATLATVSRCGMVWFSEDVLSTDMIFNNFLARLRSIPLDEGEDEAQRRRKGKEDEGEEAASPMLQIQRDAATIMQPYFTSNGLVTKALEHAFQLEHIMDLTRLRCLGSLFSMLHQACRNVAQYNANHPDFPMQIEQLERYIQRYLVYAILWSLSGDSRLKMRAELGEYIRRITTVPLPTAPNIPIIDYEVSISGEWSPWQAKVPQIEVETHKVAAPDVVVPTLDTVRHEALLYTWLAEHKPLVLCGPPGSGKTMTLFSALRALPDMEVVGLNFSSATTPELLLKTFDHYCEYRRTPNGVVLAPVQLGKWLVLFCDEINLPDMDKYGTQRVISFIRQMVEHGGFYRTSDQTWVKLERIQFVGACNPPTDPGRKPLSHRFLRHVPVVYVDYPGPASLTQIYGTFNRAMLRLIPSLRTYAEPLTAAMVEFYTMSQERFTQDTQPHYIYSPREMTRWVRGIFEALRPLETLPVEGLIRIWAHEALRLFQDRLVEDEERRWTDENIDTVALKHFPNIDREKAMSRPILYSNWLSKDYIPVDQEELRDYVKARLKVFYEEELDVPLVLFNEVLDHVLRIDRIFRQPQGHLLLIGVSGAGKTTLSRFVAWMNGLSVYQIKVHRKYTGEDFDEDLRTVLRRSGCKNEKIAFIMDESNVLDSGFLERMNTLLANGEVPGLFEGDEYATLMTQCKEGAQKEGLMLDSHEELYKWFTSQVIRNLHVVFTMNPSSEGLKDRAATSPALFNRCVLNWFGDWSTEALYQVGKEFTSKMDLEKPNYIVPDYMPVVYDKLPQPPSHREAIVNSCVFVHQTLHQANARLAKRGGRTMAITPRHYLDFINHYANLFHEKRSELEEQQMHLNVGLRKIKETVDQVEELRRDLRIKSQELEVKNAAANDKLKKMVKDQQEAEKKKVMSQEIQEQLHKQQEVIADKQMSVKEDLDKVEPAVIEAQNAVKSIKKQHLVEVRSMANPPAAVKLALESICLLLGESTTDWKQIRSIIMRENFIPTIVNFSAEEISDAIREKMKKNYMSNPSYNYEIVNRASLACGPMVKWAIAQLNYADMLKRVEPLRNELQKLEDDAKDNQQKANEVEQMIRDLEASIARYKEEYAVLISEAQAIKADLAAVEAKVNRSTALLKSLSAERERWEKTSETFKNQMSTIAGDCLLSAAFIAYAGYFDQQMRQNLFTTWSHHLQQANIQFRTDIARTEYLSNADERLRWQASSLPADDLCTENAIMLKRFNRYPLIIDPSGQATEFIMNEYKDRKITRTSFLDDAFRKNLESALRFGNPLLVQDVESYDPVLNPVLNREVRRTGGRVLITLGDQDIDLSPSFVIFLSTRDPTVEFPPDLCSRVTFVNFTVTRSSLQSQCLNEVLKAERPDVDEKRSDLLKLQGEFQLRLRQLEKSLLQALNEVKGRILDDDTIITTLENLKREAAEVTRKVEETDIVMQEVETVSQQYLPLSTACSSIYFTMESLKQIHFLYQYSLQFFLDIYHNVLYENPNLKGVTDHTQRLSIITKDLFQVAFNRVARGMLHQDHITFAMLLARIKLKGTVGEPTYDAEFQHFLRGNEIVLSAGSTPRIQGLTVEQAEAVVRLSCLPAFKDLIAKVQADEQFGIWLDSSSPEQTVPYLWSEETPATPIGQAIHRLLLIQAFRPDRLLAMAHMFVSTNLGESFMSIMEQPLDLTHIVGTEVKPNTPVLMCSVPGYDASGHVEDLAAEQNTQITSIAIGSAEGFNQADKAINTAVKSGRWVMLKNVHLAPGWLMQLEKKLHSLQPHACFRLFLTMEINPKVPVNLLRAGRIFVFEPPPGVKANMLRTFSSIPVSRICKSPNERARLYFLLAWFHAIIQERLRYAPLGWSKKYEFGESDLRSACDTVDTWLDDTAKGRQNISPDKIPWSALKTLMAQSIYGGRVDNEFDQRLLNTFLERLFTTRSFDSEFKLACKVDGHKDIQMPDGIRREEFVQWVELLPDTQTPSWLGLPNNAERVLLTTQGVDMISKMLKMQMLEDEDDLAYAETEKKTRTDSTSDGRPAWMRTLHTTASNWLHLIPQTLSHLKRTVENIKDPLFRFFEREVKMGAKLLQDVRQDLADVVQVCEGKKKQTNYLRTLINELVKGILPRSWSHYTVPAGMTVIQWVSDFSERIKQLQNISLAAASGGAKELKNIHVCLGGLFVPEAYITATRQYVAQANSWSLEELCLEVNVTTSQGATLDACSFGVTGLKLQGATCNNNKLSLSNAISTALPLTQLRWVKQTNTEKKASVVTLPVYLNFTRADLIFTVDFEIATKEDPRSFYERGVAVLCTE
UniProt Q9Y295: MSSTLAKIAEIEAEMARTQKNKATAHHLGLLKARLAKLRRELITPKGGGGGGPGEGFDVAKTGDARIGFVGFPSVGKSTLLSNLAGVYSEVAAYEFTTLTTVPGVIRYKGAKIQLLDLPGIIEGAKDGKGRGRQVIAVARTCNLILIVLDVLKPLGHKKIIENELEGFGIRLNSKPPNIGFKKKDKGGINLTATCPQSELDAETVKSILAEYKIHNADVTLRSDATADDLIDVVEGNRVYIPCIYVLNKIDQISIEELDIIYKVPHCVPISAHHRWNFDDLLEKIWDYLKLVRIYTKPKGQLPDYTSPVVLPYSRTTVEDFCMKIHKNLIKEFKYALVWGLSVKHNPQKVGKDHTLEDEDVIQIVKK
UniProt Q9NTX5: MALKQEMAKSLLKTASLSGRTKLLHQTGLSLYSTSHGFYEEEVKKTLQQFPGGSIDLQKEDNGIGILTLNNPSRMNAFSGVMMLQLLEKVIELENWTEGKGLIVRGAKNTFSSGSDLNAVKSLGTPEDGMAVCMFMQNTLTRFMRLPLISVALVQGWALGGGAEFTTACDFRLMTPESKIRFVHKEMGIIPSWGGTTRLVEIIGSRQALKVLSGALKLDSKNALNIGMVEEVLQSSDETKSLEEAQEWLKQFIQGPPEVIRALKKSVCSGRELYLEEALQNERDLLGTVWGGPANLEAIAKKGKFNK
UniProt P63172, whole entry, looked up: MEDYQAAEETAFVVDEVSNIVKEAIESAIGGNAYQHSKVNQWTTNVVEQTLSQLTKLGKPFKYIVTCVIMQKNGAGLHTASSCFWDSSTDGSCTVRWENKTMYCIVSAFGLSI

What was measured:
Test in all cases: log2 fold change, soluble protein after heating vs DMSO (PISA); higher = thermal stabilisation; K562 lysate, 10 uM; active = over 0.2 and 3.5 SD of the protein, either way, in both replicates (recomputed)
vemurafenib = compound: CCCS(=O)(=O)Nc1ccc(F)c(C(=O)c2c[nH]c3ncc(-c4ccc(Cl)cc4)cc23)c1F [vemurafenib]
Method in brief: (§1)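 Thermal stability, expressed as log-two fold change relative to solvent controls, is given from duplicates. Crude K562 extract in PBS pH 7.4 with 1 mM MgCl2, at 1 mg/mL protein, was treated with 10 μM compound for 30 min and heated in aliquots for 3 min across 48°C-58°C. After pooling, adjustment to 0.5% NP-40 at 4°C and centrifugation at 21,000xg for 90 min, supernatant protein was measured by TMTpro 16plex LC-MS/MS with channel sums equalised.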

[1] = compound: CCCS(=O)(=O)Nc1ccc(F)c(C(=O)c2c[nH]c3ncc(Cl)cc23)c1F
Method in brief: as §1

barasertib = compound: CCN(CCCOc1ccc2c(Nc3cc(CC(=O)Nc4cccc(F)c4)[nH]n3)ncnc2c1)CCOP(=O)(O)O [barasertib]
Method in brief: as §1

[2] = compound: CC[C@@H]1C(=O)N(C)c2cnc(Nc3ccc(C(=O)NC4CCN(C)CC4)cc3OC)nc2N1C1CCCC1
Method in brief: as §1

volasertib = compound: CC[C@@H]1C(=O)N(C)c2cnc(Nc3ccc(C(=O)N[C@H]4CC[C@H](N5CCN(CC6CC6)CC5)CC4)cc3OC)nc2N1C(C)C [volasertib]
Method in brief: as §1

[3] = compound: CCn1c(C(=O)N(C2CC2)C2CC2)cc2c3c(ncn3C)c(Nc3cc(C)n(C)n3)nc21
Method in brief: as §1

[4] = compound: CCn1cc(-c2ccnc3[nH]c(-c4cccc(CN(C)C)c4)cc23)c(-c2ccc(NC(=O)N(C)C)cc2)n1
Method in brief: as §1

[5] = compound: CN1CCC(CNc2ccc3ncc(-c4cccc(OC(F)(F)F)c4)n3n2)CC1
Method in brief: as §1

saracatinib = compound: CN1CCN(CCOc2cc(OC3CCOCC3)c3c(Nc4c(Cl)ccc5c4OCO5)ncnc3c2)CC1 [saracatinib]
Method in brief: as §1

sotrastaurin = compound: CN1CCN(c2nc(C3=C(c4c[nH]c5ccccc45)C(=O)NC3=O)c3ccccc3n2)CC1 [sotrastaurin]
Method in brief: as §1

alvocidib = compound: CN1CC[C@H](c2c(O)cc(O)c3c(=O)cc(-c4ccccc4Cl)oc23)[C@H](O)C1 [alvocidib]
Method in brief: as §1

Tubastatin A = compound: CN1CCc2c(c3ccccc3n2Cc2ccc(C(=O)NO)cc2)C1 [Tubastatin A]
Method in brief: as §1

[6] = compound: CNC(=O)C1=CC=CC=C1NC2=NC(=NC=C2Cl)NC3=C(C=C(C=C3)N4CCOCC4)OC
Method in brief: as §1

defactinib = compound: CNC(=O)c1ccc(Nc2ncc(C(F)(F)F)c(NCc3nccnc3N(C)S(C)(=O)=O)n2)cc1 [defactinib]
Method in brief: as §1

[7] = compound: CNc1nc(-c2ccc3c(N)n[nH]c3c2)cc(N2C[C@@H](C(=O)NC3CCCCC3)CC[C@H]2C)n1
Method in brief: as §1

encorafenib = compound: COC(=O)N[C@@H](C)CNc1nccc(-c2cn(C(C)C)nc2-c2cc(Cl)cc(NS(C)(=O)=O)c2F)n1 [encorafenib]
Method in brief: as §1

[8] = compound: COC(=O)[C@H](CCSC)NC(=O)C1=C(C=C(C=C1)NC[C@H](CS)N)C2=CC=CC=C2
Method in brief: as §1

alisertib = compound: COc1cc(Nc2ncc3c(n2)-c2ccc(Cl)cc2C(c2c(F)cccc2OC)=NC3)ccc1C(=O)O [alisertib]
Method in brief: as §1

[9] = compound: COc1cc2nc(-c3cc(F)ccc3O)nc(N[C@@H]3CNC[C@H]3C(C)(C)O)c2cc1OC
Method in brief: as §1

gefitinib = compound: COc1cc2ncnc(Nc3ccc(F)c(Cl)c3)c2cc1OCCCN1CCOCC1 [gefitinib]
Method in brief: as §1

Measured: log2 fold change

EEF1D isoform 2 (UniProt P29692)
inactive: vemurafenib 0.018 | [1] -0.001 | barasertib -0.047 | [2] -0.011 | volasertib 0.005 | [3] -0.007 | [4] -0.05 | [5] 0.06 | saracatinib 0.011 | sotrastaurin -0.007 | alvocidib -0.038 | Tubastatin A 0.021 | [6] -0.052 | defactinib -0.061 | [7] -0.001 | encorafenib 0.001 | [8] 0.049 | alisertib 0.039 | [9] -0.003 | gefitinib 0.005

DYNLL1 (UniProt P63167)
inactive: vemurafenib -0.035 | [1] -0.018 | barasertib 0.011 | [2] 0.078 | volasertib 0.017 | [3] -0.024 | [4] -0.174 | [5] 0.008 | saracatinib 0.007 | sotrastaurin -0.007 | alvocidib 0 | Tubastatin A 0.048 | [6] 0.082 | defactinib 0.075 | [7] 0.011 | encorafenib -0.018 | [8] -0.026 | alisertib -0.015 | [9] -0.006 | gefitinib -0.067

DYRK1A (UniProt Q13627)
inactive: vemurafenib -0.06 | [1] -0.009 | barasertib 0.025 | [2] -0.047 | volasertib -0.016 | [3] 0.038 | [4] -0.004 | [5] 0.044 | saracatinib -0.017 | sotrastaurin -0.013 | alvocidib 0.106 | Tubastatin A -0.088 | [6] 0.113 | defactinib 0.016 | [7] -0.034 | encorafenib 0.024 | [8] 0.002 | alisertib -0.008 | [9] 0.017 | gefitinib 0.007

EDC4 (UniProt Q6P2E9)
inactive: vemurafenib 0.053 | [1] 0.004 | barasertib 0.026 | [2] -0.013 | volasertib -0.015 | [3] 0.015 | [4] -0.055 | [5] 0.001 | saracatinib 0.011 | sotrastaurin 0.011 | alvocidib -0.012 | Tubastatin A -0.14 | [6] 0.015 | defactinib -0.008 | [7] -0.034 | encorafenib 0.009 | [8] -0.116 | alisertib 0.021 | [9] 0.021 | gefitinib -0.017

EFHD2 (UniProt Q96C19)
inactive: vemurafenib -0.016 | [1] -0.013 | barasertib -0.021 | [2] 0.039 | volasertib 0.033 | [3] -0.025 | [4] -0.095 | [5] 0.065 | saracatinib -0.01 | sotrastaurin 0.007 | alvocidib 0.01 | Tubastatin A 0.052 | [6] 0.013 | defactinib -0.008 | [7] 0.045 | encorafenib 0.008 | [8] -0.033 | alisertib 0.002 | [9] -0.009 | gefitinib -0.016

DST (UniProt Q03001)
inactive: vemurafenib 0.23 | [1] 0.021 | barasertib 0.083 | [2] 0.021 | volasertib -0.045 | [3] -0.073 | [4] -0.174 | [5] 0.076 | saracatinib 0.052 | sotrastaurin -0.024 | alvocidib -0.047 | Tubastatin A 0.033 | [6] -0.003 | defactinib -0.094 | [7] 0.114 | encorafenib 0.018 | [8] 0.048 | alisertib 0.003 | [9] 0.033 | gefitinib 0.046

ECE1 (UniProt P42892)
inactive: vemurafenib 0.027 | [1] 0.002 | barasertib 0.031 | [2] 0.08 | volasertib 0.022 | [3] 0.009 | [4] 0.006 | [5] 0.038 | saracatinib -0.005 | sotrastaurin 0.024 | alvocidib -0.045 | Tubastatin A 0.067 | [6] 0.019 | defactinib -0.035 | [7] -0.025 | encorafenib 0.021 | [8] -0.032 | alisertib -0.053 | [9] 0.006 | gefitinib 0.001

DYNC1H1 (UniProt Q14204)
inactive: vemurafenib -0.005 | [1] 0.008 | barasertib 0.016 | [2] -0.032 | volasertib -0.053 | [3] 0.028 | [4] -0.011 | [5] -0.022 | saracatinib -0.002 | sotrastaurin 0.008 | alvocidib 0.009 | Tubastatin A -0.009 | [6] -0.003 | defactinib 0.026 | [7] -0.035 | encorafenib 0.01 | [8] 0.122 | alisertib 0.009 | [9] 0.005 | gefitinib -0.017

EIF2A (UniProt Q9BY44)
inactive: vemurafenib 0.002 | [1] 0.015 | barasertib -0.028 | [2] 0.006 | volasertib -0.014 | [3] -0.01 | [4] -0.077 | [5] 0.015 | saracatinib -0.001 | sotrastaurin -0.031 | alvocidib -0.016 | Tubastatin A 0.04 | [6] -0.002 | defactinib -0.014 | [7] 0.023 | encorafenib -0.009 | [8] -0.012 | alisertib -0.001 | [9] 0.007 | gefitinib -0.028

EHMT2 (UniProt A2ABF8)
inactive: vemurafenib -0.026 | [1] -0.001 | barasertib 0.066 | [2] -0.072 | volasertib -0.056 | [3] 0.02 | [4] -0.026 | [5] 0.042 | saracatinib 0.012 | sotrastaurin 0.027 | alvocidib -0.023 | Tubastatin A -0.127 | [6] 0.01 | defactinib -0.01 | [7] 0.011 | encorafenib 0.025 | [8] 0.077 | alisertib 0.015 | [9] 0.016 | gefitinib 0.047

DRG1 (UniProt Q9Y295)
inactive: vemurafenib -0.02 | [1] 0.009 | barasertib 0.002 | [2] 0.01 | volasertib 0 | [3] -0.025 | [4] 0.016 | [5] -0.008 | saracatinib -0.012 | sotrastaurin -0.003 | alvocidib 0.012 | Tubastatin A 0.01 | [6] -0.015 | defactinib 0.013 | [7] 0.01 | encorafenib 0.002 | [8] -0.017 | alisertib 0.007 | [9] 0.013 | gefitinib -0.022

EFNB1 (UniProt P98172)
inactive: vemurafenib 0.105 | [1] 0.041 | barasertib 0.211 | [2] 0.044 | volasertib -0.013 | [3] -0.02 | [4] 0.043 | [5] 0.009 | saracatinib -0.013 | sotrastaurin 0.024 | alvocidib -0.023 | Tubastatin A 0.084 | [6] -0.032 | defactinib 0.013 | [7] 0.031 | encorafenib 0.004 | [8] 0.037 | alisertib 0.124 | [9] 0.017 | gefitinib 0.017

ECHDC1 (UniProt Q9NTX5)
inactive: vemurafenib 0.011 | [1] -0.001 | barasertib 0.004 | [2] -0.037 | volasertib 0.022 | [3] 0.054 | [4] -0.009 | [5] 0.055 | saracatinib 0.024 | sotrastaurin 0.009 | alvocidib -0.045 | Tubastatin A -0.03 | [6] -0.01 | defactinib -0.002 | [7] -0.012 | encorafenib 0.071 | [8] 0 | alisertib 0.022 | [9] -0.015 | gefitinib 0.063

2 records picked at random from the list so far, as already listed:
EHMT2 (UniProt A2ABF8)
inactive: vemurafenib -0.026 | [1] -0.001 | barasertib 0.066 | [2] -0.072 | volasertib -0.056 | [3] 0.02 | [4] -0.026 | [5] 0.042 | saracatinib 0.012 | sotrastaurin 0.027 | alvocidib -0.023 | Tubastatin A -0.127 | [6] 0.01 | defactinib -0.01 | [7] 0.011 | encorafenib 0.025 | [8] 0.077 | alisertib 0.015 | [9] 0.016 | gefitinib 0.047

EFNB1 (UniProt P98172)
inactive: vemurafenib 0.105 | [1] 0.041 | barasertib 0.211 | [2] 0.044 | volasertib -0.013 | [3] -0.02 | [4] 0.043 | [5] 0.009 | saracatinib -0.013 | sotrastaurin 0.024 | alvocidib -0.023 | Tubastatin A 0.084 | [6] -0.032 | defactinib 0.013 | [7] 0.031 | encorafenib 0.004 | [8] 0.037 | alisertib 0.124 | [9] 0.017 | gefitinib 0.017

The list continues.

DYM (UniProt Q7RTS9)
inactive: vemurafenib -0.126 | [1] 0.034 | barasertib 0.099 | [2] 0.051 | volasertib -0.013 | [3] 0.079 | [4] 0.033 | [5] -0.08 | saracatinib 0.136 | sotrastaurin -0.009 | alvocidib 0.007 | Tubastatin A -0.005 | [6] 0.046 | defactinib 0.118 | [7] 0.021 | encorafenib 0.237 | [8] 0.001 | alisertib 0.056 | [9] 0.038 | gefitinib 0.005

DYNLT1 (UniProt P63172)
inactive: vemurafenib 0.007 | [1] -0.057 | barasertib -0.031 | [2] -0.012 | volasertib 0.046 | [3] -0.005 | [4] -0.029 | [5] 0.04 | saracatinib 0.037 | sotrastaurin -0.016 | alvocidib -0.012 | Tubastatin A -0.098 | [6] -0.016 | defactinib -0.002 | [7] 0.008 | encorafenib 0.022 | [8] -0.084 | alisertib -0.067 | [9] 0.011 | gefitinib -0.071

DPP9 isoform 2 (UniProt Q86TI2)
inactive: vemurafenib -0.001 | [1] -0.014 | barasertib 0.031 | [2] -0.03 | volasertib -0.031 | [3] -0.002 | [4] -0.046 | [5] 0.015 | saracatinib -0.018 | sotrastaurin 0.016 | alvocidib 0.004 | Tubastatin A -0.013 | [6] 0.013 | defactinib 0.028 | [7] -0.014 | encorafenib 0 | [8] 0.029 | alisertib -0.029 | [9] 0.009 | gefitinib -0.015
